# Assay results from PMC8801790.
# Amino acid sequences for entries named in this document (tags omitted).
# UniProt P60174: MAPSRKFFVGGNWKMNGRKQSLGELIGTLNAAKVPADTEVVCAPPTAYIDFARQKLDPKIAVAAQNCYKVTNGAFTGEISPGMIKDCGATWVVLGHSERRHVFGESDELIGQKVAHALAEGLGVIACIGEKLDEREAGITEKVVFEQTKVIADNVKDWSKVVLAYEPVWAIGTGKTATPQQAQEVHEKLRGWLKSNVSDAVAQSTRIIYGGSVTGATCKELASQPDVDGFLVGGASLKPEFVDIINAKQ
# UniProt Q16665: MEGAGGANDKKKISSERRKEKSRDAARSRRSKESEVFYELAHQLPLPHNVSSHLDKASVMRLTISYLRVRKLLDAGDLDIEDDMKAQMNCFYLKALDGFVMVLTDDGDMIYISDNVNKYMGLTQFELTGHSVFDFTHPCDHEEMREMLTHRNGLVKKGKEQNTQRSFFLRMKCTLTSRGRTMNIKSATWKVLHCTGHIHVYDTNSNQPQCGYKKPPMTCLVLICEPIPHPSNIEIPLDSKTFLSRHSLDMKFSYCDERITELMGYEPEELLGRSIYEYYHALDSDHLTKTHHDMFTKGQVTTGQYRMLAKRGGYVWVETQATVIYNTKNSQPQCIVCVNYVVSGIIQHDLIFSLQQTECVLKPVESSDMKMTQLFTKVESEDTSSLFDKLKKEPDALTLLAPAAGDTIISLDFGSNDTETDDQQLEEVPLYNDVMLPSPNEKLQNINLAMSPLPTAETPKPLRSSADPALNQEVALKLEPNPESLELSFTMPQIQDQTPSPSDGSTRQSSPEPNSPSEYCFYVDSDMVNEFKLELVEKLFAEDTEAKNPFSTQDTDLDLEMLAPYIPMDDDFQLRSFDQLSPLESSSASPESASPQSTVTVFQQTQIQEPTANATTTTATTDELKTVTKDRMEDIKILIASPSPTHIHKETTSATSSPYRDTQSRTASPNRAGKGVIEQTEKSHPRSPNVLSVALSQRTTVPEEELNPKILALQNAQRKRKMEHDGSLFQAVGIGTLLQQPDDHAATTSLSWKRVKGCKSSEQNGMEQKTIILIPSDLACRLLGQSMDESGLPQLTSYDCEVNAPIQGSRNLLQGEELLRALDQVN
# No constants are given. Whether binding was seen depends on the method and setting. In cells and extracts the contact can be indirect. Some binding calls cover weakened binding; strength is not graded here.
# Molecular target: Triosephosphate isomerase 1 (human (endogenous in RA patient monocytes)) (UniProt P60174)
# Experiment: co-IP; lysate of RA monocytes incubated with anti-human TPI1 antibody or rabbit IgG and protein A/G plus-agarose at 4°C overnight; beads washed five times with lysis buffer; immunoblot for HIF-1α
substance,measurement,value
HIF-1α (from UniProt Q16665 1-826),binding,binds
